Where two headings read alike, the source gives them in different places. These are yes or no findings as the source states them, for the method shown. Some entries that bind do so weakly or less than the wild type.

In assay [1] the target is T1, human NTCP on HEK-NTCP cells (human) (UniProt Q14973).
T1 sequence: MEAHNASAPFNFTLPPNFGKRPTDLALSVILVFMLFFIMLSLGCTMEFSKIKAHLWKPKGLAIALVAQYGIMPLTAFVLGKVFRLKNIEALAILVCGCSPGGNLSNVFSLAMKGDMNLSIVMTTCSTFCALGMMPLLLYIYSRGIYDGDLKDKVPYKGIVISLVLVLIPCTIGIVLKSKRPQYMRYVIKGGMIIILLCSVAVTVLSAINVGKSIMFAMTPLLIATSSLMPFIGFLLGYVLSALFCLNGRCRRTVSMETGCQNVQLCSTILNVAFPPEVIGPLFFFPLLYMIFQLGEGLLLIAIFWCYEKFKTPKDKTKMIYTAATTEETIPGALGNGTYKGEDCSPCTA
As to the kind of experiment: binding of a fluorescent peptide to cells.

Assay [2] addresses T1, human NTCP on HEK-NTCP cells (human). As to the kind of experiment: binding of a fluorescent peptide to cells. The source holds these as a separate data set.

For “NH2-terminally myristoylated and COOH-terminally AlexaFluor 568-coupled fluorescent myr-preS1 2-48 peptide (from UniProt P03138 2-48)”, the binding entry in assay [1] and in assay [2] was “binds” each time.

Source of the values: article doi:10.1101/2024.01.22.576510 (bioRxiv, 2024).
